Laboratory results as given in paper PMC5024137 (Scientific Reports, 2016).

Legend:
hOATP2B1 [1] = biological target: T1, hOATP2B1 (Homo sapiens, UniProt O94956); assay: Cellular uptake assay: intracellular accumulation in HEK293-hOATP2B1 vs HEK293-MOCK cells (HPLC-MS/MS); conditions: 0.25 μM, HBSS pH7.4, 37 °C, 20 min
T1 sequence (O94956 1-709): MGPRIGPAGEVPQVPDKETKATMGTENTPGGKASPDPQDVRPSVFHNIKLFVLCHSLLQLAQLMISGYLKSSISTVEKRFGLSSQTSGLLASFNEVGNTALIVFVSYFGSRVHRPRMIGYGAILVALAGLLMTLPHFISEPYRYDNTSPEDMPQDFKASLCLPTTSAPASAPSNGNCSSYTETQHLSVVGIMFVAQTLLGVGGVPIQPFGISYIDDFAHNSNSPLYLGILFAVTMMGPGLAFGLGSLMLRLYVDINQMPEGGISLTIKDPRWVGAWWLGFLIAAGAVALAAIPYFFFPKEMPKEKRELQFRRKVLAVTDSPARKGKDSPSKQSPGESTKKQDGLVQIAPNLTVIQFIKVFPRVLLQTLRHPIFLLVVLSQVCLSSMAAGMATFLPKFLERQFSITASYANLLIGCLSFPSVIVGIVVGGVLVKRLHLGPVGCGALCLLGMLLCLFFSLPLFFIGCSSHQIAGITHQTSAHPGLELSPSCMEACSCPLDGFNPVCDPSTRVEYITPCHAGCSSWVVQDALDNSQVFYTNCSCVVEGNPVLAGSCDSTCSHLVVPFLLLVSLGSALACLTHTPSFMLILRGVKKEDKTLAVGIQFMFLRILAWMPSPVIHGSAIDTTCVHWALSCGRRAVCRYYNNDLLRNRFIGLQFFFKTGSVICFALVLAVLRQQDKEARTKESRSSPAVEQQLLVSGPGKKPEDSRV

hOATP2B1 [2] = biological target: T1, hOATP2B1; assay: pH dependent uptake of morphine and M6G in HEK293-hOATP2B1 cells; conditions: 0.25 μM, HBSS, 37 °C, 20 min

| Structure (SMILES) | increase of intracellular accumulation in HEK293-hOATP2B1 compared to HEK293-MOCK (hOATP2B1 [1]) | intracellular accumulation (hOATP2B1 [1]; HEK293-MOCK cells) | intracellular accumulation (hOATP2B1 [1]; HEK293-hOATP2B1 cells) | concentration in HEK293-hOATP2B1 cells at pH6.0 relative to pH7.4 (hOATP2B1 [2]) |
| --- | --- | --- | --- | --- |
| CN1CC[C@]23c4c5ccc(O)c4O[C@H]2[C@@H](O)C=C[C@H]3[C@H]1C5 [morphine] | more than 2 fold | 0.34 nM | 0.90 nM | 2.62 fold |
| CC(C)c1c(C(=O)Nc2ccccc2)c(-c2ccccc2)c(-c2ccc(F)cc2)n1CC[C@@H](O)C[C@@H](O)CC(=O)O [atorvastatin] | 2 to 3 fold |  |  |  |
